Test results: the supplement of paper PMC10849652
The list shows a part of the results.

Amino acid sequences for entries named in this document (tags omitted). A change or cut given only in a name is not applied to a line headed by its entry.
UniProt Q00577: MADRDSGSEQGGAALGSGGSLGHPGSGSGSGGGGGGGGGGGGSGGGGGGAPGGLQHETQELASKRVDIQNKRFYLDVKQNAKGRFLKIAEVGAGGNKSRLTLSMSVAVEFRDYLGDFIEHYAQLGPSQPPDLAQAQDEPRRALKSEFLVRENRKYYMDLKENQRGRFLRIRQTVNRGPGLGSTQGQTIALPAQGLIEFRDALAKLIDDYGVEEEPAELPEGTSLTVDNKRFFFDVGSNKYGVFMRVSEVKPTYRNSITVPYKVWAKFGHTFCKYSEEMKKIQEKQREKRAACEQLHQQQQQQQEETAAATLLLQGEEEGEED
UniProt Q9H0K6: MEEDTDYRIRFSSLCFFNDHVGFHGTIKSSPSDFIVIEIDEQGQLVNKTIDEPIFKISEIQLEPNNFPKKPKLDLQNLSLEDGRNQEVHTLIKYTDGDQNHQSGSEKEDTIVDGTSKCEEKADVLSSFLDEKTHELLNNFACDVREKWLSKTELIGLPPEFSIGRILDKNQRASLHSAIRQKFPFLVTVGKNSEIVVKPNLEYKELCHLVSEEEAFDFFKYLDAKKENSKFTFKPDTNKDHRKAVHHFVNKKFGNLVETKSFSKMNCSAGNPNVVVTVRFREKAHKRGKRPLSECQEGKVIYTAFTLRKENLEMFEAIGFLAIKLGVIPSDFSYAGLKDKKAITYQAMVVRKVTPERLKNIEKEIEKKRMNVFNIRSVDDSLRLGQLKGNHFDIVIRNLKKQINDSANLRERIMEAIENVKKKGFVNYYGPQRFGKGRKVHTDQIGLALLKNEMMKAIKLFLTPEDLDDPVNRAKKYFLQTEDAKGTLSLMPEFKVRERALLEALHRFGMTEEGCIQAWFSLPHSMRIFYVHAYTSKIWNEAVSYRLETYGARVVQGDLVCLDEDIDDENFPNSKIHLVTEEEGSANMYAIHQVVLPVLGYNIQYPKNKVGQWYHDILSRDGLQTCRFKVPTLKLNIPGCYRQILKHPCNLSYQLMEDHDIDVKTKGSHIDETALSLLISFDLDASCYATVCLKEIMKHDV
UniProt Q96PU8: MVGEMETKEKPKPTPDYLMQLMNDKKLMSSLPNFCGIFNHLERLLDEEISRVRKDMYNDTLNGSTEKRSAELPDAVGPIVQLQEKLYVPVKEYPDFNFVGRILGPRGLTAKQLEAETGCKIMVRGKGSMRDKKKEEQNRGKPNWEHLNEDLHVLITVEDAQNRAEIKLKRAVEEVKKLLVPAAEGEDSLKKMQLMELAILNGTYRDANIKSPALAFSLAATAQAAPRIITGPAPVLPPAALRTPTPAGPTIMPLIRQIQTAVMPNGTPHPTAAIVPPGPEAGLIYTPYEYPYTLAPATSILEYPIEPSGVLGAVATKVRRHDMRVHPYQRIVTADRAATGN
UniProt Q8TAA3: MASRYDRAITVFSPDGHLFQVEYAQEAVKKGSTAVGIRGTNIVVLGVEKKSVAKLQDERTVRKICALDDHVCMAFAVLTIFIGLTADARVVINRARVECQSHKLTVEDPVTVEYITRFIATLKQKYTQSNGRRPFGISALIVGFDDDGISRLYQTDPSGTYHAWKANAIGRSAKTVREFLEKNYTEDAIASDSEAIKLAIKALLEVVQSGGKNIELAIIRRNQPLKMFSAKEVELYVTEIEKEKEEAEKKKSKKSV
UniProt Q12913: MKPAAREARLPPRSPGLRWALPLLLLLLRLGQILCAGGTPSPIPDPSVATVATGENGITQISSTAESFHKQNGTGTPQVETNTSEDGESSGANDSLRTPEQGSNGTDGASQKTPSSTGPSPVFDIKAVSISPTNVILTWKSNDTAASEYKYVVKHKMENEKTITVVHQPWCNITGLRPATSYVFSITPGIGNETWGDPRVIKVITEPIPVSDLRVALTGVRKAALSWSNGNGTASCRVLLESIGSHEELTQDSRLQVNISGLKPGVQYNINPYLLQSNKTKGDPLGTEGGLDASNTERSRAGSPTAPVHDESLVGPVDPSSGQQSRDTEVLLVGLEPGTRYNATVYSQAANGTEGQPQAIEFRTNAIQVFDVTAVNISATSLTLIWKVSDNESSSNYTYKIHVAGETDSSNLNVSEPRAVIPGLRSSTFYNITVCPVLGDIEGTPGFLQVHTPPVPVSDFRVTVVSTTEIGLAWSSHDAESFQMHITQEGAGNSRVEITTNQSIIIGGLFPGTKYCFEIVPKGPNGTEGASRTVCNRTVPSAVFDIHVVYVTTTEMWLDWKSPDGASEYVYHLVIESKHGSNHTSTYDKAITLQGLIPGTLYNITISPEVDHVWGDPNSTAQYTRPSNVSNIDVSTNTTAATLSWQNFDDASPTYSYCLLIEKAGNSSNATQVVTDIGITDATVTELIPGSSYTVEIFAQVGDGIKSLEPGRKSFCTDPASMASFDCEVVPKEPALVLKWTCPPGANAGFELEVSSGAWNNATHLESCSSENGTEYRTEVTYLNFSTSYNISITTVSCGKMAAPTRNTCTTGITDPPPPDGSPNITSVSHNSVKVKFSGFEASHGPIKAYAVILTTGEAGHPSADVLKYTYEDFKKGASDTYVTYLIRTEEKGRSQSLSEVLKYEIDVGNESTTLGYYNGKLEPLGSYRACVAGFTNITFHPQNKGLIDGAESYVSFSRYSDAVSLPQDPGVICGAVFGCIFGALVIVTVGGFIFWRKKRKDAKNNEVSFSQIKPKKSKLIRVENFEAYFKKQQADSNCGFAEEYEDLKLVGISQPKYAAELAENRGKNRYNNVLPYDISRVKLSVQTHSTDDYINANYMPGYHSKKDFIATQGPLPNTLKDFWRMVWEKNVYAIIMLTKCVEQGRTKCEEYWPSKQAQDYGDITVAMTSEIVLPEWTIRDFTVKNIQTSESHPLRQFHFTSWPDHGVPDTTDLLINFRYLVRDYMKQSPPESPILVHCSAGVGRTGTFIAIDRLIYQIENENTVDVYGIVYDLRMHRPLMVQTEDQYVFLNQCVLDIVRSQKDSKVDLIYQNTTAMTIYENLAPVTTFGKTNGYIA
UniProt Q9Y606: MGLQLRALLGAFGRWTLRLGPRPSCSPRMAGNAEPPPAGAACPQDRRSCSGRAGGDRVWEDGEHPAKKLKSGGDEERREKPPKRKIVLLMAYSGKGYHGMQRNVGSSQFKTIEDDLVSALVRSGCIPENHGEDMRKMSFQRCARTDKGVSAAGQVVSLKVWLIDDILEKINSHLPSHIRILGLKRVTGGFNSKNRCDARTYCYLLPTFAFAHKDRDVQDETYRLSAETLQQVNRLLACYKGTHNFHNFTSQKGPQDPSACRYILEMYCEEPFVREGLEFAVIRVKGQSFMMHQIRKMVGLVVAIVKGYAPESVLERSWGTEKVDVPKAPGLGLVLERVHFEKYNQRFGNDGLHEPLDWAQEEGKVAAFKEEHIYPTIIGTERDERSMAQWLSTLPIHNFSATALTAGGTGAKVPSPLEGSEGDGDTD
UniProt Q8N0Z8: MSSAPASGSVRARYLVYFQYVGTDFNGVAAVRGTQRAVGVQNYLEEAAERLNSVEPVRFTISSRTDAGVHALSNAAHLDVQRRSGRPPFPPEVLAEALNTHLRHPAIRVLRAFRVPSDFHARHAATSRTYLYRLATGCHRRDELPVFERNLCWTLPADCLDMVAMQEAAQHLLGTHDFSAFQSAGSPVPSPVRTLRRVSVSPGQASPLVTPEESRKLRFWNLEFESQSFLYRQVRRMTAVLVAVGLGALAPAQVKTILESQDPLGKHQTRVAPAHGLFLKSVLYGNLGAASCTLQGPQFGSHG
UniProt Q9BRQ0: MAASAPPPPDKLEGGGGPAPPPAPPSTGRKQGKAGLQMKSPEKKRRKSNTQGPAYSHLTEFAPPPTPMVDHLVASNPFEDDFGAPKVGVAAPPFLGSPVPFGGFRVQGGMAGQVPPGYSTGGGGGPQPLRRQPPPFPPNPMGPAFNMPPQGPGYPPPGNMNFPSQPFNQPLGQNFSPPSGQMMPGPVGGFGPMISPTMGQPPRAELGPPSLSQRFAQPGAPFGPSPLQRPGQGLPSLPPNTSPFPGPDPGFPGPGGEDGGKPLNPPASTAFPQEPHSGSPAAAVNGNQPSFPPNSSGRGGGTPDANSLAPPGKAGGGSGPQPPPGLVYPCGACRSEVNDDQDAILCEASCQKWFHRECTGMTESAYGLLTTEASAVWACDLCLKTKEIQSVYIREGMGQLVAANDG
UniProt Q99952: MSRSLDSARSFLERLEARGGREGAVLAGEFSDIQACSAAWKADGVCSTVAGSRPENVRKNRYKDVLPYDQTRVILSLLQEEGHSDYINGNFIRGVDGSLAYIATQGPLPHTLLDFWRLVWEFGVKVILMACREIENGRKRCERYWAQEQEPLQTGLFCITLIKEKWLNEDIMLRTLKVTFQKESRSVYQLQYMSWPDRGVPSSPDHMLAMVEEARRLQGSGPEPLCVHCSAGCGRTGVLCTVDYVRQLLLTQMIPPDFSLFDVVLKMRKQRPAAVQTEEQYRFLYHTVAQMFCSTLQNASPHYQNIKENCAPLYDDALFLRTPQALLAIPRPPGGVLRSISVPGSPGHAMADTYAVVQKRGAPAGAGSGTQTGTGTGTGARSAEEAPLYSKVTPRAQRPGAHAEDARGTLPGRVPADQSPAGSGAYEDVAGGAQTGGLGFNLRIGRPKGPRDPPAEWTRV
UniProt Q9UKA9: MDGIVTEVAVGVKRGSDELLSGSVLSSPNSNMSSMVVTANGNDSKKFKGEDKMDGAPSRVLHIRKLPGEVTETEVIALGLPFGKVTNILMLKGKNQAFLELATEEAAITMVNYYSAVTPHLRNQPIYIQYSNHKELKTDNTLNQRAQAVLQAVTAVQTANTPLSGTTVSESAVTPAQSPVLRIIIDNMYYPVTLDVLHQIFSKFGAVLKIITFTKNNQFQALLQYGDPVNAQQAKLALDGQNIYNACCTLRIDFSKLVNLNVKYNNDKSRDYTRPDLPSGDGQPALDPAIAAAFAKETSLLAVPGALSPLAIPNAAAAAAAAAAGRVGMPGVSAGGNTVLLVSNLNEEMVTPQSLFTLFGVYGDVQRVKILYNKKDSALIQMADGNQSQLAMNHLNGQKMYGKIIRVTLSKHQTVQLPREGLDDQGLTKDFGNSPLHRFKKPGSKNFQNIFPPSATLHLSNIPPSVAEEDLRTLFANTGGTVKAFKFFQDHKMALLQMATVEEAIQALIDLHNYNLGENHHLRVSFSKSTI
UniProt P28074: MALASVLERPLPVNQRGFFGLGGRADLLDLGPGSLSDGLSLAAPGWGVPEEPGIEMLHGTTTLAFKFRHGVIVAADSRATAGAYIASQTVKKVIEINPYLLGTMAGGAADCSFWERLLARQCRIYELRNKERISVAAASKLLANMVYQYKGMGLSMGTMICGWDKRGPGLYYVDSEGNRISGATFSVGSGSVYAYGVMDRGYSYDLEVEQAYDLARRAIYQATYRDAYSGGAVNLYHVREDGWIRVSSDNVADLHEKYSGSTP
UniProt Q14671: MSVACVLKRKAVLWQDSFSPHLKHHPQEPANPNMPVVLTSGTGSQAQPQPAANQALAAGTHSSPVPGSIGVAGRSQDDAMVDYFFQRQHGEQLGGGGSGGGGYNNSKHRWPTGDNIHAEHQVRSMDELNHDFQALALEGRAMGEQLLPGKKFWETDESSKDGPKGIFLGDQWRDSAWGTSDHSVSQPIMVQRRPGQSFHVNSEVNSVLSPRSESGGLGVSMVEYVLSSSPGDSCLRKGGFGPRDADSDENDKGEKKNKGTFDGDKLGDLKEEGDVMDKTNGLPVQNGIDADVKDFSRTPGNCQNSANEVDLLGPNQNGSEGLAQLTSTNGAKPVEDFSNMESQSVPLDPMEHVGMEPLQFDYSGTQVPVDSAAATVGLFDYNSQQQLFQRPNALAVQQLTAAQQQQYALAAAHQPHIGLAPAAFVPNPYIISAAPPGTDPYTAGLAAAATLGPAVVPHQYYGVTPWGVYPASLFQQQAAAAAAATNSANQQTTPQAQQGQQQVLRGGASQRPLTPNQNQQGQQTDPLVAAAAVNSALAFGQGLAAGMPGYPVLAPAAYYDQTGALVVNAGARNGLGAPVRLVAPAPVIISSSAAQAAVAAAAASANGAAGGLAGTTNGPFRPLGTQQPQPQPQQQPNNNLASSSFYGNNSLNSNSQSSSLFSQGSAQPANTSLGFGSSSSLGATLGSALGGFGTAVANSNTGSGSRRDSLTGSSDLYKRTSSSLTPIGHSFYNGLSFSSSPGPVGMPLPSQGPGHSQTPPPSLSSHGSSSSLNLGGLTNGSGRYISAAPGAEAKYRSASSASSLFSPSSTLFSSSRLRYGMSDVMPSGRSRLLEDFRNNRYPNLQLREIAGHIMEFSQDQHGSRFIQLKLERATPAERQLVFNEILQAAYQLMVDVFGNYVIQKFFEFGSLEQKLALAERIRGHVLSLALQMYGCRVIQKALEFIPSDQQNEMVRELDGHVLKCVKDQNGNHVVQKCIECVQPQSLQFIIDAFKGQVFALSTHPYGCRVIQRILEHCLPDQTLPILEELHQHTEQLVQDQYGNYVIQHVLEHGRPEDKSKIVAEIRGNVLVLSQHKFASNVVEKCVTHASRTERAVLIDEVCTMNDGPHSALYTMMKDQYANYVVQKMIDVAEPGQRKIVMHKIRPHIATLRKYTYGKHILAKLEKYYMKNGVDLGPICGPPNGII

Key:
Assay in all cases: log2 fold change, soluble protein after heating vs DMSO (PISA); higher = thermal stabilisation; K562 cells, 10 uM, 30 min; active = over 0.2 and 3.5 SD of the protein, either way, in both replicates (recomputed)
[1] = compound: NC(=O)Nc1cc(-c2cccc(F)c2)sc1C(=O)N[C@H]1CCCNC1
How it was run: (§1)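 Values are thermal stability changes relative to control samples and are taken from duplicates. They are stated as log2 fold changes. Before quantification by TMTpro 16plex LC-MS/MS with equalised channel sums, K562 cells at 2×10^6 cells/mL were treated with 10 μM compound for 30 min, heated in aliquots for 3 min across 48°C-58°C, pooled, extracted in PBS with 0.5% NP-40 at 4°C, and centrifuged at 21,000xg for 90 min to give the soluble supernatant.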

[2] = compound: NC(=O)c1cnc(N[C@@H]2CCCC[C@@H]2N)nc1Nc1cccc(-n2nccn2)c1
How it was run: as §1

[3] = compound: NC1(c2ccc(-c3nc4ccn5c(=O)[nH]nc5c4cc3-c3ccccc3)cc2)CCC1
How it was run: as §1

entinostat = compound: Nc1ccccc1NC(=O)c1ccc(CNC(=O)OCc2cccnc2)cc1 [entinostat]
How it was run: as §1

vorinostat = compound: O=C(CCCCCCC(=O)Nc1ccccc1)NO [vorinostat]
How it was run: as §1

silmitasertib = compound: O=C(O)c1ccc2c(c1)nc(Nc1cccc(Cl)c1)c1ccncc12 [silmitasertib]
How it was run: as §1

[4] = compound: NCC(=O)Nc1ccc(-n2nc(C(F)(F)F)cc2-c2ccc3c(ccc4ccccc43)c2)cc1
How it was run: as §1

citarinostat = compound: O=C(CCCCCCNC(=O)c1cnc(N(c2ccccc2)c2ccccc2Cl)nc1)NO [citarinostat]
How it was run: as §1

[5] = compound: c1cc(OCCN2CCCCC2)cc(-c2n[nH]c3ccc(-c4nnc[nH]4)cc23)c1
How it was run: as §1

[6] = compound: O=C1NC(=O)C(c2cnc3ccccn23)=C1c1cn2c3c(cc(F)cc13)CN(C(=O)N1CCCCC1)CC2
How it was run: as §1

Measured: log2 fold change

PSEN2 (UniProt P49810)
inactive: [1] -0.083 | [2] -0.066 | [3] -0.177 | entinostat -0.034 | vorinostat -0.078 | silmitasertib 0.078

PSMB2, A0A087WVV1
inactive: [1] 0.18 | [2] 0.105 | [3] -0.31 | [4] -0.184 | entinostat -0.051 | vorinostat 0.124 | citarinostat 0.062 | silmitasertib 0.082 | [5] 0.064

QPRT (UniProt Q15274)
inactive: [1] 0.011 | [2] -0.029 | [3] 0.016 | [4] 0.034 | entinostat -0.022 | vorinostat -0.013 | citarinostat 0.015 | silmitasertib -0.025 | [6] -0.036 | [5] 0.051

PURA (UniProt Q00577)
inactive: [1] 0.015 | [2] 0.105 | [3] 0.377 | [4] 0.036 | entinostat -0.085 | vorinostat -0.079 | citarinostat -0.141 | silmitasertib 0.248 | [6] 0.185 | [5] -0.114

PUS7L (UniProt Q9H0K6)
inactive: [1] -0.047 | [2] 0 | [3] -0.087 | [4] -0.036 | entinostat 0.043 | vorinostat 0.023 | citarinostat 0.019 | silmitasertib -0.031 | [6] 0.016 | [5] -0.087

QKI (UniProt Q96PU8)
inactive: [1] -0.057 | [2] -0.137 | [3] -0.086 | [4] -0.084 | entinostat 0.006 | vorinostat 0.06 | citarinostat 0.026 | silmitasertib -0.012 | [6] -0.071 | [5] 0.064

PSMC5 (UniProt P62195)
inactive: [1] 0.034 | [2] -0.001 | [3] 0.007 | [4] 0.054 | entinostat -0.021 | vorinostat -0.004 | citarinostat -0.021 | silmitasertib -0.005 | [6] 0.063 | [5] -0.075

PSPC1 (UniProt Q8WXF1)
inactive: [1] -0.001 | [2] -0.039 | [3] 0.021 | [4] -0.027 | entinostat -0.014 | vorinostat 0.14 | citarinostat 0.067 | silmitasertib -0.032 | [6] -0.074 | [5] -0.057

PTMA (UniProt P06454)
inactive: [1] 0.279 | [2] 0.2 | [3] 0.217 | [4] 0.157 | entinostat 0.052 | vorinostat -0.026 | citarinostat -0.018 | [6] 0.021 | [5] 0.099
active: silmitasertib -0.628

PYROXD1 (UniProt Q8WU10)
inactive: [1] 0 | [2] -0.103 | [3] -0.284 | [4] -0.059 | entinostat 0.032 | silmitasertib 0.078 | [6] 0

PSMA8 (UniProt Q8TAA3)
inactive: [1] 0.02 | [2] -0.007 | [3] 0.032 | [4] -0.005 | entinostat -0.037 | vorinostat -0.048 | citarinostat -0.011 | silmitasertib -0.026 | [6] 0.017 | [5] -0.028

QRICH1 (UniProt Q2TAL8)
inactive: [1] -0.043 | [2] -0.119 | [3] -0.137 | [4] -0.093 | entinostat 0.168 | citarinostat 0.11 | silmitasertib 0.047 | [6] -0.276 | [5] 0.027

PZP (UniProt P20742)
inactive: [1] -0.107 | [2] 0.087 | [3] 0.028 | [4] 0.039 | entinostat -0.032 | vorinostat -0.061 | citarinostat -0.038 | silmitasertib 0.066 | [6] 0.025 | [5] 0.399

R3HDM1 isoform 2 (UniProt Q15032)
inactive: [1] -0.162 | [2] -0.079 | [3] 0.034 | [4] -0.07 | entinostat -0.084 | vorinostat 0.098 | citarinostat 0.029 | silmitasertib -0.08 | [5] 0.106

PYCR1 (UniProt J3QKT4)
inactive: [2] -0.039 | [4] -0.105 | vorinostat -0.111 | citarinostat -0.091 | [6] -0.114 | [5] -0.096

PTPRS (UniProt Q13332)
inactive: [1] -0.169 | [2] 0.271 | [4] -0.093 | entinostat 0.03 | vorinostat 0.054 | [6] -0.077

PTRH1 (UniProt Q86Y79)
inactive: [2] -0.077 | vorinostat 0.175

PSMB8 (UniProt P28062)
inactive: [2] 0.088 | vorinostat 0.3

PTPRJ (UniProt Q12913)
inactive: [1] -0.253 | entinostat 0 | [6] -0.095

PUS1 (UniProt Q9Y606)
inactive: [1] -0.162 | [2] -0.019 | [4] -0.052 | entinostat 0.261 | vorinostat 0.188 | citarinostat 0.188 | [6] 0.087 | [5] -0.19

PSD3 (UniProt Q9NYI0)
active: [2] -0.262
inactive: [3] -0.14 | [4] -0.113 | citarinostat 0.017 | silmitasertib -0.095 | [5] -0.02

PUSL1 (UniProt Q8N0Z8)
inactive: [1] 0.164 | [3] 0.06 | entinostat 0.055 | vorinostat -0.048 | citarinostat 0.098 | silmitasertib 0.094 | [6] 0.169 | [5] -0.118

2 consecutive entries out of the list so far:
PUS1 (UniProt Q9Y606)
inactive: [1] -0.162 | [2] -0.019 | [4] -0.052 | entinostat 0.261 | vorinostat 0.188 | citarinostat 0.188 | [6] 0.087 | [5] -0.19

PSD3 (UniProt Q9NYI0)
active: [2] -0.262
inactive: [3] -0.14 | [4] -0.113 | citarinostat 0.017 | silmitasertib -0.095 | [5] -0.02

Additional results.

R3HCC1L (UniProt Q7Z5L2)
inactive: [1] -0.321 | [2] -0.023 | [4] 0.006 | entinostat -0.087 | vorinostat 0.101

PSMC3 (UniProt E9PLG2)
inactive: [1] -0.62 | [3] -0.077 | [4] 0.117 | entinostat -0.438 | silmitasertib 0.097 | [6] -0.327

PSIP1 (UniProt V9GYT7)
inactive: [3] 0.071 | vorinostat -0.055 | citarinostat -0.077 | silmitasertib 0.006 | [5] -0.103

PTPN7 isoform 3 (UniProt P35236)
inactive: [1] 0.012 | [4] 0.149 | entinostat 0 | citarinostat 0.068 | [5] -0.242

PSD4 (UniProt Q8NDX1)
inactive: [1] 0.047 | [2] 0.073 | [4] 0.257 | entinostat 0.002 | citarinostat -0.051 | [6] -0.145 | [5] 0.047

PSMD8 (UniProt K7ERW6)
inactive: [4] -0.417

PTP4A3 (UniProt O75365)
inactive: [4] -0.105

PTGER3 isoform 2 (UniProt P43115)
inactive: [2] -0.062

PRUNE2 isoform 3 (UniProt Q8WUY3)
inactive: [2] 0.025 | [3] 0.126 | [4] 0.323 | citarinostat 0.156 | silmitasertib -0.165 | [6] -0.119 | [5] -0.025

PTEN isoform 2 (UniProt P60484)
inactive: vorinostat 0.024 | citarinostat 0.089 | [5] 0.066

PSMA3 (UniProt H0YJ03)
inactive: [2] -0.059 | [4] -0.048 | citarinostat 0.081 | [5] 0.143

PSMB9 (UniProt P28065)
inactive: [1] -0.122 | [2] -0.102 | [4] 0.029 | entinostat -0.118 | vorinostat 0.086 | citarinostat -0.028 | [6] -0.061 | [5] 0

PURG (UniProt Q9UJV8)
inactive: [1] -0.049 | entinostat -0.11 | [6] 0.434

PSMA3 (UniProt G3V4X5)
inactive: [4] -0.055

2 entries drawn at random from those above:
PSMA3 (UniProt G3V4X5)
inactive: [4] -0.055

PSMB9 (UniProt P28065)
inactive: [1] -0.122 | [2] -0.102 | [4] 0.029 | entinostat -0.118 | vorinostat 0.086 | citarinostat -0.028 | [6] -0.061 | [5] 0

(continued)

PYGO2 (UniProt Q9BRQ0)
inactive: [1] 0.129 | [3] 0.04 | [4] 0.21 | entinostat 0.08 | vorinostat -0.039 | citarinostat -0.14 | silmitasertib -0.064 | [6] 0.011 | [5] -0.225

PTPN18 (UniProt Q99952)
inactive: [1] -0.029 | [3] 0.051 | entinostat -0.174 | citarinostat -0.035 | silmitasertib -0.025 | [5] -0.029

PTS (UniProt Q03393)
inactive: [2] -0.006 | [3] 0.054 | [4] -0.011 | vorinostat -0.107 | citarinostat 0.063 | silmitasertib -0.027 | [6] -0.182 | [5] -0.079

PSEN1 (UniProt P49768)
inactive: [1] -0.052 | [3] -0.093 | [4] 0.005 | entinostat -0.168 | citarinostat -0.088 | silmitasertib 0.012 | [6] -0.028 | [5] 0.009

PTBP2 isoform 3 (UniProt Q9UKA9)
inactive: [1] 0.095 | entinostat -0.299 | vorinostat 0.318

PSMB5 isoform 3 (UniProt P28074)
inactive: [1] -0.373 | [2] -0.431 | [4] -0.397 | entinostat -0.287 | citarinostat -0.544 | [6] -0.095 | [5] -0.408

PSMC3IP (UniProt Q9P2W1)
inactive: [2] -0.006 | [3] -0.361 | [4] -0.038 | vorinostat 0.134 | citarinostat 0.388 | silmitasertib 0.028 | [6] -0.067 | [5] -0.104

PTPN9 (UniProt P43378)
inactive: [3] 0.043 | vorinostat 0.171 | silmitasertib -0.191

PUF60 isoform 2 (UniProt Q9UHX1)
inactive: [2] 0.024 | [3] -0.137 | [4] 0.21 | silmitasertib 0.069

PSMC1 (UniProt G3V4X1)
inactive: vorinostat 0.168

PUM1 (UniProt Q14671)
inactive: [2] 0.058 | vorinostat -0.037

R3HCC1 (UniProt Q9Y3T6)
inactive: [1] -0.239 | [2] 0.016 | [4] -0.019 | entinostat -0.084 | vorinostat -0.045
